From patent publication US20070161644A1, “Erastin analogs and uses thereof” (priority 2005, published 2007)

Test system: engineered cell lines
Experiment: Selectivity across the panel of engineered cell lines (calcein AM)
Format: cell-based, human
Settings: from selectivity ratio for each subsequent pair of cell lines in a series

SMILES | Genetic basis of Selectivity
CC[C@@]1(O)C(=O)OCc2c1cc1n(c2=O)Cc2cc3ccccc3nc2-1 [Camptothecin] | RAS^v12/PP2A/
COc1cccc2c1C(=O)c1c(O)c3c(c(O)c1C2=O)C[C@@](O)(C(C)=O)C[C@@H]3O[C@H]1C[C@H](N)[C@H](O)[C@H](C)O1 [Daunorubicin] | TERT/RB
COc1cccc2c1C(=O)c1c(O)c3c(c(O)c1C2=O)C[C@@](O)(C(=O)CO)C[C@@H]3O[C@H]1C[C@H](N)[C@H](O)[C@H](C)O1 [Doxorubicin] | TERT/RB
O=C1c2c(O)ccc(O)c2C(=O)c2c(NCCNCCO)ccc(NCCNCCO)c21 [Mitoxantrone] | TERT/RB

The amount applied is not stated for every result.
